Hit rate of the full screen: of about 390,000 compounds, about 4,000 (1%) were called active. Inconclusive results, whose numbers are uncertain, are shown with a selection of clear calls. The call rests on the fitted dose curve; in most records, active means well fitted inhibition curve with a large enough effect; inconclusive means small, poorly fitted or top-dose-only effect, or another doubt; inactive means no such curve, though single readings can be large or run the other way. A potency beside an inconclusive call is a rough fit, not a confirmed value.
molecular target: DNA polymerase iota (Homo sapiens) (UniProt Q9UNA4); experiment: qHTS for Inhibitors of Polymerase Iota; settings: Pol iota fluorescent replication assay, 10 min; series mostly up to 115 µM; activity, negative = inhibition: at the top concentration
Outline: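 Fluorescent replication assay read twice, at 0 min and 10 min after adding 50 nM (final) substrate. Enzyme (10 nM) and compounds were first incubated 15 min at room temperature; enzyme-free buffer wells were negative controls.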
Potency means the concentration at half of the fitted maximal effect.

Protein sequences, listed by entry. Tags and fused reporters are not part of them. Lines headed by an entry give the natural chain unless they say otherwise; changes in a name come on top.
UniProt Q9UNA4: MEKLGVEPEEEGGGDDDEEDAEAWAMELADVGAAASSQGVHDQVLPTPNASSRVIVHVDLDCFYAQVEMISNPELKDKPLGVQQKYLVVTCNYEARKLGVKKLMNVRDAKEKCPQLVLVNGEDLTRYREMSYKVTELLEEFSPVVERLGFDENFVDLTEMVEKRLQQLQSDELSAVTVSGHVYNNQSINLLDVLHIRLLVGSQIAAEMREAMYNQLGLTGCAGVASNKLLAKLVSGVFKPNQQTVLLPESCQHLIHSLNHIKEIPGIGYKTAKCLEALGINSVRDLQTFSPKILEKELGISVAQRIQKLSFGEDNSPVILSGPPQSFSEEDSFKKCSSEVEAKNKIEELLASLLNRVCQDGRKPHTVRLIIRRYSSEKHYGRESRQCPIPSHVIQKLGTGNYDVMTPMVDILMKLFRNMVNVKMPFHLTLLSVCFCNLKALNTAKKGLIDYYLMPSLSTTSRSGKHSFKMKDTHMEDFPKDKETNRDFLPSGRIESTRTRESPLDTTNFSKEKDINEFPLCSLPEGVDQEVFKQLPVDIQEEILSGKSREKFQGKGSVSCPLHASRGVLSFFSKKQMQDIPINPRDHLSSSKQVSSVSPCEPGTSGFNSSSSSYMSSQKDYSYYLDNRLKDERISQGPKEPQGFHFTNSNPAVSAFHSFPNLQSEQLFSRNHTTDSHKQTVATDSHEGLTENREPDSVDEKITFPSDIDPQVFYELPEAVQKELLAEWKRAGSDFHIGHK

Compound | activity, negative = inhibition | Potency
CC(C)C(=O)Nc1cccc(NC(=O)c2cccc(Br)c2)c1 | inactive: 10.3% | –
COc1ccc2oc(C(=O)OCC(=O)NC3CCCCC3)c(C)c2c1 | – | inconclusive: 7.08 µM [inhibitor, partial curve, poor fit]
CC(NC(=O)CN1C(=O)NC(Cc2ccccc2)(Cc2ccccc2)C1=O)C12CC3CC(CC(C3)C1)C2 (stereo not drawn) | – | inconclusive: 31.6 µM [inhibitor, single point]
COc1ccc(OCC(=O)OCc2cc(=O)n3nc(C4CCCCC4)sc3n2)cc1 | – | inconclusive: 89.1 µM [inhibitor, single point]
Cc1ccc(CCNC(=O)Cn2nc(-c3ccc(C)cc3)ccc2=O)cc1 | inactive: -13.5% | –
O=C(Nc1ccc(O)cc1C(=O)O)c1ccc(NC(=O)c2ccco2)cc1 | – | inconclusive: 7.94 µM [inhibitor, full curve]
COc1cccc(/C=N/NC(=O)c2cc(-c3cccn3C)n[nH]2)c1O | – | inconclusive: 31.6 µM [inhibitor, partial curve, poor fit]
Cc1nn(-c2ccccc2)c(OC(=O)C(C)C)c1Sc1ccc(Cl)cc1 | – | inconclusive: 31.6 µM [inhibitor, partial curve, poor fit]
CC(Sc1nc2ccccc2c(=O)n1C)C(=O)Nc1ccc2c(c1)OCCO2 (stereo not drawn) | – | inconclusive: 100 µM [inhibitor, single point]
CCOC(=O)c1c(S(=O)(=O)NCC(=O)Nc2ccc(F)cc2F)c(C)n(C)c1C | inactive: 4.24% | –
CCS(=O)(=O)c1nnnn1-c1ccccc1S(C)(=O)=O | – | inconclusive: 39.8 µM [inhibitor, single point]
CCc1ccc(/C=C2\SC(=S)N(CCC(=O)N3CCN(C)CC3)C2=O)cc1 | – | inconclusive: 22.4 µM [inhibitor, full curve, poor fit]
CC(C)(C)c1ccc(NC(=O)C2CCCN(c3cnccn3)C2)cc1 (stereo not drawn) | – | inconclusive: 89.1 µM [inhibitor, single point]
COC(=O)c1ccc(NC(=O)c2nc(SCc3ccccc3F)ncc2Cl)cc1 | inactive: 54.4% | –
CC(C)Oc1ccc(C(=O)NC2CCSc3ccccc32)cc1 (stereo not drawn) | – | inconclusive: 89.1 µM [inhibitor, single point]
C/C(=C\C(=O)c1ccc(C)o1)Nc1ccc(C(=O)O)cc1C | inactive: 9.22% | –
COc1ccc(C(=O)Nc2ccc(-c3n[nH]c(=S)o3)cc2)cc1 | – | inconclusive: 63.1 µM [inhibitor, partial curve, poor fit]
N/C(=N/O)c1ccccc1N1CCC(Cc2ccccc2)CC1 | – | inconclusive: 70.8 µM [inhibitor, single point]
COc1cc(CNCc2ccccc2)c(Br)cc1OC1CCCC1 | inactive: 64% | –
O=C(CC(Sc1ccccc1)c1cccs1)c1ccco1 (stereo not drawn) | – | inconclusive: 25.1 µM [inhibitor, full curve, poor fit]
COc1ccc(C=O)cc1COc1ccc(C)cc1[N+](=O)[O-] | inactive: 7.33% | –
CCSC1=NC2(CCCCC2)Nc2sc3c(c21)CCCC3 | – | inconclusive: 25.1 µM [inhibitor, partial curve]

Compound | activity, negative = inhibition | Potency
COc1cc(/C=C\C(=O)NCc2ccc3c(c2)cc(C)n3C)cc(OC)c1OC | – | inconclusive: 50.1 µM [inhibitor, partial curve, poor fit]
O=C(COc1ccccc1)NCCSCc1ccco1 | – | inconclusive: 22.4 µM [inhibitor, partial curve, poor fit]
Cc1ccc(C)c(CN2C(=O)c3ccccc3S(=O)(=O)c3ccc(C(=O)N(C)C4CCCCC4)cc32)c1 | inactive: -15% | –
COc1ccc(C)cc1NC(=O)CSc1ccc(-c2ccco2)nn1 | – | active: 31.6 µM
Fc1ccc(N2CCN(C3CCC(c4ccccc4)CC3)CC2)cc1 (stereo not drawn) | – | inconclusive: 22.4 µM [inhibitor, full curve]
CC(C)(C)NC(=O)C(c1ccc(F)cc1)N(CC1CCCO1)C(=O)c1csnn1 (stereo not drawn) | – | inconclusive: 89.1 µM [inhibitor, single point]
O=C1/C(=C/C=C/c2ccco2)SC(=S)N1NS(=O)(=O)c1ccccc1 | – | active: 1.78 µM
O=C(NCc1ccco1)c1ccc2c(c1)C(=O)c1ccccc1-2 | – | inconclusive: 22.4 µM [inhibitor, full curve]
COc1ccc(NC(=O)NNC(=O)c2cc3ccccc3cc2O)cc1 | – | inconclusive: 79.4 µM [inhibitor, single point]
O=C(O)Cc1ccc(N=Nc2c(O)c(C(=O)O)cc3ccccc23)cc1 | – | active: 7.94 µM
Cc1ccc(C)c(CN2CCCN(Cc3ccc(F)cc3)S2(=O)=O)c1 | inactive: 19.7% | –
COCC(=O)Nc1cc(C)cn(Cc2c(F)cccc2Cl)c1=O | – | inconclusive: 50.1 µM [inhibitor, partial curve, poor fit]
COC(=O)C[C@H]1c2ccccc2S(=O)(=O)N1c1ccc(N(C)C)cc1 | inactive: 27% | –
O=C(COC(=O)c1ccc([N+](=O)[O-])o1)Nc1ccc(N2CCOCC2)cc1 | – | inconclusive: 11.2 µM [inhibitor, full curve, poor fit]
COc1ccccc1/C=C/c1nc2ccccc2n1C(C)C | – | inconclusive: 79.4 µM [inhibitor, single point]
Cc1onc(-c2ccccc2Cl)c1C(=O)Nc1cccc2cccnc12 | – | inconclusive: 25.1 µM [inhibitor, partial curve, poor fit]
COc1cc(C(=O)Nc2ccc(Nc3ccccc3)cc2)cc(OC)c1OC | – | inconclusive: 79.4 µM [inhibitor, single point]
CN(c1cccc(NC(=O)c2ccc(N(C)S(=O)(=O)c3ccccc3)cc2)c1)S(C)(=O)=O | – | inconclusive: 44.7 µM [inhibitor, partial curve]
CC(=O)c1ccc(S(=O)(=O)N2CCn3cccc3C2c2ccc(C)cc2)cc1 (stereo not drawn) | – | inconclusive: 0.501 µM [inhibitor, partial curve, poor fit]
O=C(CCC(=O)c1ccccc1)Nc1ccccc1 | – | inconclusive: 89.1 µM [inhibitor, partial curve]
Cc1ccc(S(=O)(=O)NCCC(=O)NCCc2ccccc2)cc1 | – | inconclusive: 100 µM [inhibitor, partial curve, poor fit]

— PubChem BioAssay AID588590 (National Center for Advancing Translational Sciences (NCATS), 2011)
